Laboratory results: the supplement of paper PMC10849652
The list shows a part of the results.

By UniProt entry, the sequences of proteins in these tests, tags left out. Where a name states a change or a piece, a line headed by the entry shows the natural chain unless it says otherwise.
UniProt Q8IW45: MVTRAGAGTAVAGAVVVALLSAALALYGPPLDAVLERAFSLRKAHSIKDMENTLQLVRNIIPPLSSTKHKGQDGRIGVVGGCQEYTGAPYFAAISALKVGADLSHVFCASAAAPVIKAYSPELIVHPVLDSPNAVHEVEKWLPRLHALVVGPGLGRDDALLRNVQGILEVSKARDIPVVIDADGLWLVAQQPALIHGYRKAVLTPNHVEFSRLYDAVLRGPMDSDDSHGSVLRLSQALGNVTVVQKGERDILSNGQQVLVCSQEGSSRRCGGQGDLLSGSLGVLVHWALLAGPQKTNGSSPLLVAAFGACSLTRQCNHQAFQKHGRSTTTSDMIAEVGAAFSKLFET
UniProt P28331, whole entry, looked up: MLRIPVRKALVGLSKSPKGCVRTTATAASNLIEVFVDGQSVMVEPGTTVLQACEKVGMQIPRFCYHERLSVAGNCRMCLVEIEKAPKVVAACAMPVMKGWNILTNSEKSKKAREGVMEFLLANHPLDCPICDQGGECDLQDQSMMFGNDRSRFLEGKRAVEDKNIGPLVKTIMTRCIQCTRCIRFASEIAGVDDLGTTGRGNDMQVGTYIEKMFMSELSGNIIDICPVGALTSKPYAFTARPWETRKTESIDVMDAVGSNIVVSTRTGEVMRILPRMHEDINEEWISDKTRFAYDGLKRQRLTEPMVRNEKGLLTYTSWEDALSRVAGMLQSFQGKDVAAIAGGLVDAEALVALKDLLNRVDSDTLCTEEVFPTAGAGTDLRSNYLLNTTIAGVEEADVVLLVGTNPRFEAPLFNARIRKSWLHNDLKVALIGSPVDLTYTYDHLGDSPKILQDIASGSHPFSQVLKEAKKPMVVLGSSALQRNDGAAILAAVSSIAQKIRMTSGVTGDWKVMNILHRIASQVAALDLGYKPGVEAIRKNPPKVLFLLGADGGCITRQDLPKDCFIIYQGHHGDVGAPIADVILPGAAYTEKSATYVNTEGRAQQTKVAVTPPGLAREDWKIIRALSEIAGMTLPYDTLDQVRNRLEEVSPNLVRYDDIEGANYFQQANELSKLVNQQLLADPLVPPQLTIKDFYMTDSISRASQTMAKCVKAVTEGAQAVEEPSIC
UniProt Q9Y5N5: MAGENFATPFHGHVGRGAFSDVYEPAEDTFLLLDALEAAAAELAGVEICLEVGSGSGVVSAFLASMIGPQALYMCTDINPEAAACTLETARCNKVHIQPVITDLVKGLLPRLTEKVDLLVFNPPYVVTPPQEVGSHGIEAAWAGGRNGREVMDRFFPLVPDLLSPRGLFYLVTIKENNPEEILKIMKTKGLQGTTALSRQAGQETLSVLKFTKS
UniProt Q96RE7: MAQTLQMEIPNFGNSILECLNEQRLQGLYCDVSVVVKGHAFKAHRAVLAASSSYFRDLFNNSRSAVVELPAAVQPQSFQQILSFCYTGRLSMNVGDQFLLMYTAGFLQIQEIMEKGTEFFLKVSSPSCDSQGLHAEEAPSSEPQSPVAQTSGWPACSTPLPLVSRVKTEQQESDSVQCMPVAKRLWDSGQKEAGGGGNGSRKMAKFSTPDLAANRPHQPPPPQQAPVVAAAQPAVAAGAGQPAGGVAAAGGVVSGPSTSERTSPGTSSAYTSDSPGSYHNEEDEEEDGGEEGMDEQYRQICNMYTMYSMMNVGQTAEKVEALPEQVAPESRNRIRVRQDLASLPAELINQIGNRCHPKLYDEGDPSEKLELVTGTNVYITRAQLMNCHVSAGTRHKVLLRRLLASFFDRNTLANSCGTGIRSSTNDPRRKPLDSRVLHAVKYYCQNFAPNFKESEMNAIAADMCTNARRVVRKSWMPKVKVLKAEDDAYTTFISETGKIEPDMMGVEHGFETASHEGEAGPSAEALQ
UniProt P55209: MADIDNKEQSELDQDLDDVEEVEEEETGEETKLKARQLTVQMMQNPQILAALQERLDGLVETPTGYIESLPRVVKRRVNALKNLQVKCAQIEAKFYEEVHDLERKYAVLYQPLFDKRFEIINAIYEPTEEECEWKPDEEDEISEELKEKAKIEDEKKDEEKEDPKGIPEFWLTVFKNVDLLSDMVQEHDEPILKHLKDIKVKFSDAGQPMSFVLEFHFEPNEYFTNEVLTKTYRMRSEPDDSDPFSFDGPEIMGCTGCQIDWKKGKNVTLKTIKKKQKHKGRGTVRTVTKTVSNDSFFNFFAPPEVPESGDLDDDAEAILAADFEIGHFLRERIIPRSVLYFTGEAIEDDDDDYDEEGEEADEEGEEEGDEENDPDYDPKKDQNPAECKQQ
UniProt Q9NR45: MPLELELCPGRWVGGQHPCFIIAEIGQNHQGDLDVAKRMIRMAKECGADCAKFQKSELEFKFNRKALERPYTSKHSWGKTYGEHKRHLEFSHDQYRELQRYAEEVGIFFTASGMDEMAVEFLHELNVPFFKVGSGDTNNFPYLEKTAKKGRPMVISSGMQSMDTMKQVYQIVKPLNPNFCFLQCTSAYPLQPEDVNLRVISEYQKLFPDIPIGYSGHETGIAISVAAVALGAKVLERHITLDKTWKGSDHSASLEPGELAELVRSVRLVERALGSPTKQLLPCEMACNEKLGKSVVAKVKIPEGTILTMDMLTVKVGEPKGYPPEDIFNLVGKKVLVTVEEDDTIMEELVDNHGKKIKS
UniProt Q6XQN6: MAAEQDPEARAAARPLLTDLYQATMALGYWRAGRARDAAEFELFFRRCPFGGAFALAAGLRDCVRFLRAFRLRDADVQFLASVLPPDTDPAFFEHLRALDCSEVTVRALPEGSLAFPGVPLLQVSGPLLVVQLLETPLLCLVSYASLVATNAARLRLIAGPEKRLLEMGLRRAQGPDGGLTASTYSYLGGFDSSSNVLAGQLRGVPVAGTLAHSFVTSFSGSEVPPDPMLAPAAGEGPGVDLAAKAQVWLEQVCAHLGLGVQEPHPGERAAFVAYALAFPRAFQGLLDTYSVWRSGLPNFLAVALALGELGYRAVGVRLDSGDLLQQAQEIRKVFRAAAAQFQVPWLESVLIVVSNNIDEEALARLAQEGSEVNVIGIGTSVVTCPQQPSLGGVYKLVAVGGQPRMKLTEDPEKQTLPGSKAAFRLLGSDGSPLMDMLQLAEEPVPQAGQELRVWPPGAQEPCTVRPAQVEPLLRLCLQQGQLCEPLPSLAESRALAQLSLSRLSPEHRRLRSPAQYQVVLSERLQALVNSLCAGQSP
UniProt P19338, whole entry, looked up: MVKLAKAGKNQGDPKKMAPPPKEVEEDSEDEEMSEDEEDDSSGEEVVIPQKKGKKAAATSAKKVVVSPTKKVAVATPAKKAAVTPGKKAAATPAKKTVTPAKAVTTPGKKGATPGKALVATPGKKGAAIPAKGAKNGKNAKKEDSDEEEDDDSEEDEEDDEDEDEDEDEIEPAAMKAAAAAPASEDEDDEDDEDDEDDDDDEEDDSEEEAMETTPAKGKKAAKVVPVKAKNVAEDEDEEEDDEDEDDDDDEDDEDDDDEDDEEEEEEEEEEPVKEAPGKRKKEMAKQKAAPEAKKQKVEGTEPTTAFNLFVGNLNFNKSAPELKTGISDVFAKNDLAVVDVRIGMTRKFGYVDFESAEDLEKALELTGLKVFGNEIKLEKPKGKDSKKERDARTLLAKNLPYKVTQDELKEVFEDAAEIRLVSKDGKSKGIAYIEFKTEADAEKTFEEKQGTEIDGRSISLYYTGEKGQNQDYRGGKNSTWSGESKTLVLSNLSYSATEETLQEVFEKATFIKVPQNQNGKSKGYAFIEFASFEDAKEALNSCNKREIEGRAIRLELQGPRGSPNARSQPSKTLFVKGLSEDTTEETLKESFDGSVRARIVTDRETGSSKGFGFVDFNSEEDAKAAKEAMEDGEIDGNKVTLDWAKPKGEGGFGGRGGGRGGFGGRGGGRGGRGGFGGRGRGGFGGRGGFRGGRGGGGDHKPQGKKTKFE
UniProt Q8NEY1: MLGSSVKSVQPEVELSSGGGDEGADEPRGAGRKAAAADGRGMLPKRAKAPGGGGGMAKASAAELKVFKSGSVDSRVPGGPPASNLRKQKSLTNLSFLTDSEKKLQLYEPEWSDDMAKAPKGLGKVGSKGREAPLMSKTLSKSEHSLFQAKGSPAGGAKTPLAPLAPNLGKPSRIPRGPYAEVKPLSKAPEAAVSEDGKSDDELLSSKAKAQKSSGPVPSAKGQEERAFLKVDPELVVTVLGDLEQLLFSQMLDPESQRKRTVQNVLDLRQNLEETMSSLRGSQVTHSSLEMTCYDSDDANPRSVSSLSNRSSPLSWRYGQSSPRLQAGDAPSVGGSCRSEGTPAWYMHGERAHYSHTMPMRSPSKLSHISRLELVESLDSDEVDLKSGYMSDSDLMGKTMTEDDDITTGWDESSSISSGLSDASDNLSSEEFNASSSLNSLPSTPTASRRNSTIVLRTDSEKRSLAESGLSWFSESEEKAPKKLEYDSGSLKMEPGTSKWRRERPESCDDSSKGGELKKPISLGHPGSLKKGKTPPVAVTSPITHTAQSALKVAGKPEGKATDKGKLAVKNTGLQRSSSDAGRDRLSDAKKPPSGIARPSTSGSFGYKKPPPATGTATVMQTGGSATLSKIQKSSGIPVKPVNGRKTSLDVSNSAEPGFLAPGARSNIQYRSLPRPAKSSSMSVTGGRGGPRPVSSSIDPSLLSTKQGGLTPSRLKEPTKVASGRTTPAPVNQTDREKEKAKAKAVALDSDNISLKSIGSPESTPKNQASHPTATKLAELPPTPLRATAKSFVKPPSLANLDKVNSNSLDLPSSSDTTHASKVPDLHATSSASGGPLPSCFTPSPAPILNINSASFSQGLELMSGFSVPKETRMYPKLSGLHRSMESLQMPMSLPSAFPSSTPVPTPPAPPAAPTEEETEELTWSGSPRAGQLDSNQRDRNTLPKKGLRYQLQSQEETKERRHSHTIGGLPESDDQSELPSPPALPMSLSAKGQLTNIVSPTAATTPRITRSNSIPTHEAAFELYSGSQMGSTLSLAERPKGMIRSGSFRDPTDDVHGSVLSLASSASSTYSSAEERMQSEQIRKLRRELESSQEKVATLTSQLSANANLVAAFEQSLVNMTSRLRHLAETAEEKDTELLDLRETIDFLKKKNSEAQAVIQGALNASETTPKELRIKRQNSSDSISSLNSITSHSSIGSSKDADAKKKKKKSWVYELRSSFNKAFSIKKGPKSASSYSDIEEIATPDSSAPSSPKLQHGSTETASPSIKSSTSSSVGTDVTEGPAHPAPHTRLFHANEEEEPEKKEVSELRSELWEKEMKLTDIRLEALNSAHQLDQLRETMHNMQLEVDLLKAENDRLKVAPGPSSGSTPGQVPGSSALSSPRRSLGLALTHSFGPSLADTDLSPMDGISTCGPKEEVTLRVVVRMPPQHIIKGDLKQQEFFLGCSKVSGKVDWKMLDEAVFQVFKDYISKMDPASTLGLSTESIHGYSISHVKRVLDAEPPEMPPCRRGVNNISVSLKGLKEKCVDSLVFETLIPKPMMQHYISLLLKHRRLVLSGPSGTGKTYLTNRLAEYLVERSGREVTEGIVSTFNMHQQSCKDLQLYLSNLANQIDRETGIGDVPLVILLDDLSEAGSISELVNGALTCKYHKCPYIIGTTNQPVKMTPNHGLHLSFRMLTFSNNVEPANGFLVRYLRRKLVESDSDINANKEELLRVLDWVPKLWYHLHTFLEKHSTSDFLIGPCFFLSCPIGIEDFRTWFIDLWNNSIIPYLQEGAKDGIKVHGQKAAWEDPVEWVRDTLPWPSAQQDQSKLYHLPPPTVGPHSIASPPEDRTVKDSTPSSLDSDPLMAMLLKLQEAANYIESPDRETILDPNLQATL
UniProt Q9BU61: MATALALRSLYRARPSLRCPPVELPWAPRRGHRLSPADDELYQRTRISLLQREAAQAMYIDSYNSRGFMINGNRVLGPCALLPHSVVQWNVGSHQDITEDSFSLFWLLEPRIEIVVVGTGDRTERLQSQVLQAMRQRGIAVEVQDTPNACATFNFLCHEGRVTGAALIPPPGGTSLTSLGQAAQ
UniProt Q8WUY8: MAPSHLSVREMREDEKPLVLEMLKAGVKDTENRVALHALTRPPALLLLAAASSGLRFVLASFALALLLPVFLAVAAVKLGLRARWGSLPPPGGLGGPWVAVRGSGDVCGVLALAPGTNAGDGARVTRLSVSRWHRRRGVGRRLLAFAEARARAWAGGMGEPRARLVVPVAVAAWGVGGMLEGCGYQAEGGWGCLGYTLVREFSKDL
UniProt Q9Y6M9, whole entry, looked up: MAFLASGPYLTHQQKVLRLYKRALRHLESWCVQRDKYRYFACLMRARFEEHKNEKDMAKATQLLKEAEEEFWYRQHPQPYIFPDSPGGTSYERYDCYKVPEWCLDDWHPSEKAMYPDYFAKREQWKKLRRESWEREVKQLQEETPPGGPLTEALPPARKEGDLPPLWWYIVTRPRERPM
UniProt P54920: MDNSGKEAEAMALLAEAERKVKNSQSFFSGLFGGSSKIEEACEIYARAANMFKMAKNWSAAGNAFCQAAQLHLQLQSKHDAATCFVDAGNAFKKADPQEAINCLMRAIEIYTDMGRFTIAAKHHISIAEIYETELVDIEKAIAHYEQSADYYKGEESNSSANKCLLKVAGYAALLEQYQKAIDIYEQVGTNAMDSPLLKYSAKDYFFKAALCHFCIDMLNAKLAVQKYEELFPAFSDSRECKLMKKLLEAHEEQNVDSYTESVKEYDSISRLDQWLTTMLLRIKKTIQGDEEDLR

Experiments:
Assay in all cases: log2 fold change, soluble protein after heating vs DMSO (PISA); higher = thermal stabilisation; K562 cells, 10 uM, 30 min; active = over 0.2 and 3.5 SD of the protein, either way, in both replicates (recomputed)
[1] = compound: CC1=C(C=C(C=C1)NC(=O)C2=CC(=CC=C2)C(C)(C)C#N)NC3=CC4=C(C=C3)N=CN(C4=O)C
Method in brief: (§1)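 K562 cells at 2×10^6 cells/mL were given 10 μM compound for 30 min. Aliquots then went through 3 min of heating across 48°C-58°C, were pooled, and were extracted in PBS with 0.5% NP-40 at 4°C, and the supernatant after 21,000xg for 90 min was quantified by TMTpro 16plex LC-MS/MS with channel sums equalised. Thermal stability relative to control samples, from duplicates, is given as log2 fold change.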

[2] = compound: CC1=C(C=C(C=C1)NC(=O)C2=CC(=CC=C2)N(C)C)NC(=O)C3=CC=C(C=C3)O
Method in brief: as §1

[3] = compound: CC1=CC=C(C=C1)SC2=C3C=C(SC3=CN=C2)C(=O)N
Method in brief: as §1

[4] = compound: CC1=NC(=CC=C1)C2=C(N=C(N2)C(C)(C)C)C3=CC4=NC=CN=C4C=C3
Method in brief: as §1

[5] = compound: CCCCN(Cc1ccc(C(=O)NO)cc1)C(=O)Nc1ccccc1 [Nexturastat A]
Method in brief: as §1

[6] = compound: CCCS(=O)(=O)Nc1ccc(F)c(C(=O)c2c[nH]c3ncc(-c4ccc(Cl)cc4)cc23)c1F [vemurafenib]
Method in brief: as §1

[7] = compound: CCCS(=O)(=O)Nc1ccc(F)c(C(=O)c2c[nH]c3ncc(Cl)cc23)c1F
Method in brief: as §1

[8] = compound: CCCc1cc(C)[nH]c(=O)c1CNC(=O)c1cc(-c2ccnc(N3CCN(C)CC3)c2)cc2c1cnn2C(C)C
Method in brief: as §1

[9] = compound: CCN(CC)Cc1ccc2cc(COC(=O)Nc3ccc(C(=O)NO)cc3)ccc2c1 [givinostat]
Method in brief: as §1

[10] = compound: CCN(CCCOc1ccc2c(Nc3cc(CC(=O)Nc4cccc(F)c4)[nH]n3)ncnc2c1)CCOP(=O)(O)O [barasertib]
Method in brief: as §1

Measured: log2 fold change

NAXD (UniProt Q8IW45)
inactive: [1] 0.021 | [2] -0.004 | [3] 0.037 | [4] 0.005 | [5] -0.025 | [6] -0.002 | [7] -0.007 | [8] -0.027 | [9] 0.031 | [10] -0.01

NDUFS8 (UniProt O00217)
inactive: [1] 0.02 | [2] 0 | [3] 0.03 | [4] 0.018 | [5] -0.136 | [6] 0.02 | [7] -0.006 | [8] -0.092 | [9] -0.014 | [10] -0.004

NDUFS1 isoform 2 (UniProt P28331)
inactive: [1] -0.013 | [2] -0.043 | [3] 0.001 | [4] 0.027 | [5] -0.046 | [6] 0.013 | [7] 0.036 | [8] 0 | [9] -0.034 | [10] 0.014

N6AMT1 (UniProt Q9Y5N5)
inactive: [1] 0.125 | [2] -0.015 | [3] -0.004 | [4] 0.037 | [5] -0.012 | [6] -0.031 | [7] -0.04 | [8] -0.031 | [9] -0.139 | [10] 0.044

NDC80 (UniProt O14777)
inactive: [1] -0.05 | [2] -0.016 | [3] -0.018 | [4] -0.091 | [5] 0.133 | [6] -0.029 | [7] 0.177 | [8] -0.109 | [9] 0.176

NDUFB6 (UniProt O95139)
inactive: [1] 0.022 | [2] -0.019 | [3] -0.014 | [4] 0.033 | [5] 0.01 | [6] -0.011 | [7] -0.008 | [8] -0.11 | [9] -0.001 | [10] -0.065

NCALD (UniProt P61601)
inactive: [1] 0 | [2] -0.006 | [3] 0.021 | [4] -0.016 | [5] -0.097 | [6] 0.016 | [7] 0.109 | [8] -0.021 | [9] -0.022 | [10] 0.024

NACC1 (UniProt Q96RE7)
inactive: [1] -0.043 | [2] -0.012 | [3] 0.048 | [4] 0.164 | [5] -0.036 | [6] 0.154 | [7] 0.064 | [8] 0.025 | [9] 0.208 | [10] 0.115

NAP1L1 (UniProt P55209)
inactive: [1] 0.042 | [2] 0.005 | [3] -0.002 | [4] 0.035 | [5] -0.003 | [6] 0.04 | [7] 0.011 | [8] 0.028 | [9] -0.08 | [10] 0.061

NANS (UniProt Q9NR45)
inactive: [1] 0.063 | [2] -0.02 | [3] 0.035 | [4] 0.007 | [5] -0.196 | [6] -0.001 | [7] 0.026 | [8] 0.007 | [9] -0.025 | [10] 0.01

NAGA (UniProt P17050)
inactive: [1] -0.055 | [2] -0.058 | [3] 0.072 | [4] -0.1 | [5] -0.029 | [6] -0.055 | [7] -0.047 | [8] -0.004 | [9] -0.036 | [10] -0.014

NAPRT (UniProt Q6XQN6)
inactive: [1] -0.025 | [2] -0.006 | [3] -0.011 | [4] -0.002 | [5] -0.14 | [6] -0.019 | [7] -0.025 | [8] -0.044 | [9] -0.085 | [10] 0.002

NAF1 (UniProt Q96HR8)
inactive: [1] -0.034 | [2] -0.06 | [3] -0.037 | [4] 0.002 | [5] 0.05 | [6] 0.057 | [7] -0.011 | [8] 0.076 | [9] 0.006 | [10] -0.017

NCL (UniProt P19338)
inactive: [1] -0.017 | [2] -0.056 | [3] -0.077 | [4] -0.126 | [5] 0.275 | [6] -0.139 | [7] -0.036 | [8] 0.145 | [9] 0.085 | [10] -0.101

NAV1 (UniProt Q8NEY1)
inactive: [1] -0.118 | [2] -0.025 | [3] 0.131 | [4] -0.057 | [5] 0.177 | [6] -0.09 | [7] -0.042 | [8] 0.189 | [9] 0.286

NDUFAF3 (UniProt Q9BU61)
inactive: [1] -0.001 | [2] -0.036 | [3] 0.078 | [4] 0.07 | [5] -0.123 | [6] 0.035 | [7] 0.062 | [8] -0.033 | [9] 0.003 | [10] 0.051

NAT14 (UniProt Q8WUY8)
inactive: [1] 0.012 | [2] -0.054 | [3] 0.011 | [4] 0.031 | [5] 0.227 | [6] 0.054 | [7] -0.051 | [8] -0.103 | [9] -0.043 | [10] 0.027

N4BP1 (UniProt O75113)
inactive: [1] -0.016 | [2] -0.01 | [3] -0.039 | [4] 0.042 | [5] -0.033 | [6] 0.043 | [7] 0.037 | [8] 0.071 | [9] -0.001 | [10] 0.069

NCAPD3 (UniProt P42695)
inactive: [1] 0.038 | [2] -0.054 | [3] 0.021 | [4] 0.009 | [5] 0.071 | [6] -0.09 | [7] -0.025 | [8] -0.012 | [9] 0.047 | [10] -0.026

NDUFA4 (UniProt O00483)
inactive: [1] 0.046 | [2] -0.069 | [3] -0.003 | [4] 0.049 | [5] -0.033 | [6] 0.002 | [7] 0.018 | [8] -0.023 | [9] -0.099 | [10] 0.044

NCAPH (UniProt Q15003)
inactive: [1] 0.02 | [2] -0.091 | [3] 0.013 | [4] 0.012 | [5] 0.09 | [6] 0.068 | [7] 0.065 | [8] 0.067 | [9] 0.238 | [10] 0.042

NDRG2 (UniProt Q9UN36)
inactive: [1] 0.043 | [2] 0.001 | [3] 0.026 | [4] 0.019 | [5] -0.035 | [6] 0.026 | [7] 0.052 | [8] 0.019 | [9] 0.01 | [10] -0.015

NCK1 (UniProt P16333)
inactive: [1] 0.166 | [2] -0.068 | [3] 0.208 | [4] 0.102 | [5] 0.12 | [6] 0.031 | [7] 0.116 | [8] 0.08 | [9] 0.211 | [10] 0.189

NAA15, A0A0B4J1W3
inactive: [1] -0.167 | [2] -0.021 | [3] 0.026 | [4] 0.014 | [5] -0.128 | [6] -0.068 | [7] 0 | [8] -0.086 | [9] -0.012 | [10] 0.029

Two successive records from above, quoted:
NAT14 (UniProt Q8WUY8)
inactive: [1] 0.012 | [2] -0.054 | [3] 0.011 | [4] 0.031 | [5] 0.227 | [6] 0.054 | [7] -0.051 | [8] -0.103 | [9] -0.043 | [10] 0.027

N4BP1 (UniProt O75113)
inactive: [1] -0.016 | [2] -0.01 | [3] -0.039 | [4] 0.042 | [5] -0.033 | [6] 0.043 | [7] 0.037 | [8] 0.071 | [9] -0.001 | [10] 0.069

(continued)

NDUFA12 (UniProt Q9UI09)
inactive: [1] 0.022 | [2] -0.1 | [3] 0.014 | [4] -0.028 | [5] -0.027 | [6] 0.039 | [7] 0.03 | [8] -0.044 | [9] 0.114 | [10] 0.056

NA, A0A0B4J2A0
inactive: [1] 0.016 | [2] -0.028 | [3] 0.002 | [4] -0.006 | [5] -0.043 | [6] 0.017 | [7] 0.072 | [8] -0.091 | [9] 0.029 | [10] 0.012

NDUFB9 (UniProt Q9Y6M9)
inactive: [1] -0.021 | [2] 0.003 | [3] 0.015 | [4] 0 | [5] -0.05 | [6] -0.011 | [7] 0.029 | [8] -0.102 | [9] -0.149 | [10] -0.013

NCKAP1 isoform 2 (UniProt Q9Y2A7)
inactive: [1] 0.039 | [2] 0.009 | [3] 0.004 | [4] 0.033 | [5] 0.02 | [6] 0.036 | [7] 0.015 | [8] 0.064 | [9] 0.021 | [10] -0.009

NDUFS4 (UniProt O43181)
inactive: [1] 0.03 | [2] 0.024 | [3] -0.069 | [4] -0.033 | [5] 0.032 | [6] -0.061 | [7] -0.06 | [8] -0.033 | [9] -0.083 | [10] -0.062

NAPA (UniProt P54920)
inactive: [1] 0.062 | [2] -0.002 | [3] 0.006 | [4] 0.02 | [5] -0.085 | [6] 0.063 | [7] 0.019 | [8] -0.043 | [9] -0.016 | [10] 0.002
